In test [1] the target is T1, FLAG/HA-Pasha (DGCR8) (human) (UniProt Q8WYQ5).
T1 sequence: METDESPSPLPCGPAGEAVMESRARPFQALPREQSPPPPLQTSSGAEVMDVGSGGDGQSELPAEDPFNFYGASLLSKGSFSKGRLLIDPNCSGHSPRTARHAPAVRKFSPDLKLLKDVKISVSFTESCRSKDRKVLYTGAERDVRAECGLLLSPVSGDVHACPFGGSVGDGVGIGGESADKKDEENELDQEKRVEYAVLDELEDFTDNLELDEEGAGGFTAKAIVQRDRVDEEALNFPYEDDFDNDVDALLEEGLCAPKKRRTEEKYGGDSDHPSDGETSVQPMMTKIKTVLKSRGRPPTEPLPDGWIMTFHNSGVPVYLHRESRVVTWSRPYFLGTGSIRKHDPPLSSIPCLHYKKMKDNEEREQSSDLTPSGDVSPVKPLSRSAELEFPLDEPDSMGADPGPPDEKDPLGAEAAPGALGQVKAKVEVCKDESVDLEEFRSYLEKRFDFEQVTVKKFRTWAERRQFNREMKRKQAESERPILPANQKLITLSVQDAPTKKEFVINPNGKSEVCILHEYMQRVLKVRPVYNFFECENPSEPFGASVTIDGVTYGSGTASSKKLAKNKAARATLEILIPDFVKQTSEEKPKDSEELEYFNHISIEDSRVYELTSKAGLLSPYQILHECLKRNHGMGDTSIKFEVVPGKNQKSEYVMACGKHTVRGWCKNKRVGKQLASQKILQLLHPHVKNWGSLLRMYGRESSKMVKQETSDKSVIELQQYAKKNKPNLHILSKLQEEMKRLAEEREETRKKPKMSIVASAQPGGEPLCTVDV
As to the kind of experiment: co-IP; tagged cDNAs transiently transfected into HEK293 cells; 1% Triton X-100 lysis buffer, sonicated; immunoprecipitation with anti-FLAG or anti-MYC antibodies.

The target in test [2] is human SUN1Δ6-FLAG/MYC (human). Described as above.
In test [3] the target is nucleoplasmic domain of Sun1 Δ7,Δ9 (mouse). Briefly: two-hybrid; ProNet Y2H system (Myriad Genetics); nucleoplasmic domain of Sun1 Δ7,Δ9 as bait; uterus/mammary gland and brain libraries.
Test [4] addresses SUN1 Δ7 (endogenous isoform precipitated by the Sun1 Δ7 antibody) (mouse (endogenous in C2C12)). Briefly: co-IP; endogenous proteins; C2C12 myotube nuclear fraction lysate (1% Triton X-100 lysis buffer); immunoprecipitation with SUN1 isoform antibodies (Δ7 and Δ7–9), anti-HA as control; Drosha detected by blot.
Test [5] deals with SUN1 Δ7–9 isoform (mouse (endogenous in C2C12)). Described as above.

These are yes or no findings as the source states them, for the method shown. For some of these results: Binding calls can cover weak binding; strength is not graded here. For some of these results: Binding seen in cells or lysates may run through a third protein. For some of these results: Sequences can lack the tags named with a protein.

Take mouse MYC-SUN1 Δ7,Δ9: in test [1], the binding entry is given as “binds”.

B1: FLAG/HA-Pasha (DGCR8) (protein, UniProt Q8WYQ5 1-773)
chain: T1 sequence
Consider B1, for which the binding entry in test [2] was “binds”.

B2: full length Drosha-GFP (enzyme, UniProt Q9NRR4 1-1374)
chain: MMQGNTCHRMSFHPGRGCPRGRGGHGARPSAPSFRPQNLRLLHPQQPPVQYQYEPPSAPSTTFSNSPAPNFLPPRPDFVPFPPPMPPSAQGPLPPCPIRPPFPNHQMRHPFPVPPCFPPMPPPMPCPNNPPVPGAPPGQGTFPFMMPPPSMPHPPPPPVMPQQVNYQYPPGYSHHNFPPPSFNSFQNNPSSFLPSANNSSSPHFRHLPPYPLPKAPSERRSPERLKHYDDHRHRDHSHGRGERHRSLDRRERGRSPDRRRQDSRYRSDYDRGRTPSRHRSYERSRERERERHRHRDNRRSPSLERSYKKEYKRSGRSYGLSVVPEPAGCTPELPGEIIKNTDSWAPPLEIVNHRSPSREKKRARWEEEKDRWSDNQSSGKDKNYTSIKEKEPEETMPDKNEEEEEELLKPVWIRCTHSENYYSSDPMDQVGDSTVVGTSRLRDLYDKFEEELGSRQEKAKAARPPWEPPKTKLDEDLESSSESECESDEDSTCSSSSDSEVFDVIAEIKRKKAHPDRLHDELWYNDPGQMNDGPLCKCSAKARRTGIRHSIYPGEEAIKPCRPMTNNAGRLFHYRITVSPPTNFLTDRPTVIEYDDHEYIFEGFSMFAHAPLTNIPLCKVIRFNIDYTIHFIEEMMPENFCVKGLELFSLFLFRDILELYDWNLKGPLFEDSPPCCPRFHFMPRFVRFLPDGGKEVLSMHQILLYLLRCSKALVPEEEIANMLQWEELEWQKYAEECKGMIVTNPGTKPSSVRIDQLDREQFNPDVITFPIIVHFGIRPAQLSYAGDPQYQKLWKSYVKLRHLLANSPKVKQTDKQKLAQREEALQKIRQKNTMRREVTVELSSQGFWKTGIRSDVCQHAMMLPVLTHHIRYHQCLMHLDKLIGYTFQDRCLLQLAMTHPSHHLNFGMNPDHARNSLSNCGIRQPKYGDRKVHHMHMRKKGINTLINIMSRLGQDDPTPSRINHNERLEFLGDAVVEFLTSVHLYYLFPSLEEGGLATYRTAIVQNQHLAMLAKKLELDRFMLYAHGPDLCRESDLRHAMANCFEALIGAVYLEGSLEEAKQLFGRLLFNDPDLREVWLNYPLHPLQLQEPNTDRQLIETSPVLQKLTEFEEAIGVIFTHVRLLARAFTLRTVGFNHLTLGHNQRMEFLGDSIMQLVATEYLFIHFPDHHEGHLTLLRSSLVNNRTQAKVAEELGMQEYAITNDKTKRPVALRTKTLADLLESFIAALYIDKDLEYVHTFMNVCFFPRLKEFILNQDWNDPKSQLQQCCLTLRTEGKEPDIPLYKTLQTVGPSHARTYTVAVYFKGERIGCGKGPSIQQAEMGAAMDALEKYNFPQMAHQKRFIERKYRQELKEMRWEREHQEREPDETEDIKK
Regarding B2, in test [2], the binding result is “binds”.

B3: Drosha protein domain spanning amino acids 57–674 (domain or fragment, UniProt Q9NRR4 57-674)
chain: SAPSTTFSNSPAPNFLPPRPDFVPFPPPMPPSAQGPLPPCPIRPPFPNHQMRHPFPVPPCFPPMPPPMPCPNNPPVPGAPPGQGTFPFMMPPPSMPHPPPPPVMPQQVNYQYPPGYSHHNFPPPSFNSFQNNPSSFLPSANNSSSPHFRHLPPYPLPKAPSERRSPERLKHYDDHRHRDHSHGRGERHRSLDRRERGRSPDRRRQDSRYRSDYDRGRTPSRHRSYERSRERERERHRHRDNRRSPSLERSYKKEYKRSGRSYGLSVVPEPAGCTPELPGEIIKNTDSWAPPLEIVNHRSPSREKKRARWEEEKDRWSDNQSSGKDKNYTSIKEKEPEETMPDKNEEEEEELLKPVWIRCTHSENYYSSDPMDQVGDSTVVGTSRLRDLYDKFEEELGSRQEKAKAARPPWEPPKTKLDEDLESSSESECESDEDSTCSSSSDSEVFDVIAEIKRKKAHPDRLHDELWYNDPGQMNDGPLCKCSAKARRTGIRHSIYPGEEAIKPCRPMTNNAGRLFHYRITVSPPTNFLTDRPTVIEYDDHEYIFEGFSMFAHAPLTNIPLCKVIRFNIDYTIHFIEEMMPENFCVKGLELFSLFLFRDILELYDWNLKGPLFEDSPP
Take B3: the binding result in test [3] was “binds”.

B4: Drosha (endogenous, C2C12 myotubes) (protein, UniProt Q5HZJ0 1-1373)
chain: MQGNTCHRMSYHPGRGCPRGRGGHGARPSAPAFRPQNLRLLHPQQPPAQYQYEPPSAPSSSYSNSQAPSFMPPRPDFVPYPPPAAPSAQGPLPPCPVRPPYPNHQMRHPFPVPPCFPPMPPPMPCPNNPPASGAPPGQGTFPFMVPPPSMPHPPPPPVMPQQVNYQYPPGYSHSFPPPGFNSYQNNSSSFPPSANSSSTPHFRHLPPYSLPKAQNERRSPERLKHYDDHRHRDHSHGRGERHRSLERRERGRSPERRRPESRYRSDYDRGRTPPPRHRSYERSRERDRERHRHREARRSPSLERSYKKEYKRSGRSYALPVAPEPAGCTPELPGEMIKTTESWAPPPENVNHRSPSREKKRARWEEEKDRWSDSQGSGKEKNYTSIKEKEAEEVPPEKTEEEEEELLKPVWIRCTHSESYYSSDPMDQVGDSTVVGTSRLRDLYDKFEEELGNRQEKAKAARPPWEPPKTKLDEDLESSSESECETDDDSTCSSSSDSEVFDVIAEIKRKKAHPDRLHDELWYNDPGQMNDGPLCKCSAKARRTGIRHSIYPGEEAIKPCRPMTNNAGRLFHYRITVSPPTNFLTDRPTVIEYDDHEYIFEGFSMFAHAPLTNIPLCKVIRFNIDYTIHFIEEMMPENFCVKGLELFSLFLFRDILELYDWNLKGPLFEDSPPCCPRFHFMPRFVRFLPDGGKEVLSMHQILLYLLRCSKALVPEEEIANMLQWEELEWQKYAEECKGMIVTNPGTKPSSVRIDQLDREQFNPEVITFPIIVHFGIRPAQLSYAGDPQYQKLWKSYVKLRHLLANSPKVKQTDKQKLAQREEALQKIRQKNTMRREVTVELSSQGFWKTGIRSDVCQHAMMLPVLTHHIRYHQCLMHLDKLIGYTFQDRCLLQLAMTHPSHHLNFGMNPDHARNSLSNCGIRQPKYGDRKVHHMHMRKKGINTLINIMSRLGQDDPTPSRINHNERLEFLGDAVVEFLTSVHLYYLFPSLEEGGLATYRTAIVQNQHLAMLAKKLELDRFMLYAHGPDLCRESDLRHAMANCFEALIGAVYLEGSLEEAKQLFGRLLFNDPDLREVWLNYPLHPLQLQEPNTDRQLIETSPVLQKLTEFEEAIGVIFTHVRLLARAFTLRTVGFNHLTLGHNQRMEFLGDSIMQLVATEYLFIHFPDHHEGHLTLLRSSLVNNRTQAKVAEELGMQEYAITNDKTKRPVALRTKTLADLLESFIAALYIDKDLEYVHTFMNVCFFPRLKEFILNQDWNDPKSQLQQCCLTLRTEGKEPDIPLYKTLQTVGPSHARTYTVAVYFKGERIGCGKGPSIQQAEMGAAMDALEKYNFPQMAHQKRFIERKYRQELKEMRWEREHQEREPEEAEDIKK
For B4, the binding result is “binds” in test [4] and “no binding” in test [5].

B5: Drosha protein domain spanning amino acids 204–727 (domain or fragment, UniProt Q9NRR4 204-727)
chain: FRHLPPYPLPKAPSERRSPERLKHYDDHRHRDHSHGRGERHRSLDRRERGRSPDRRRQDSRYRSDYDRGRTPSRHRSYERSRERERERHRHRDNRRSPSLERSYKKEYKRSGRSYGLSVVPEPAGCTPELPGEIIKNTDSWAPPLEIVNHRSPSREKKRARWEEEKDRWSDNQSSGKDKNYTSIKEKEPEETMPDKNEEEEEELLKPVWIRCTHSENYYSSDPMDQVGDSTVVGTSRLRDLYDKFEEELGSRQEKAKAARPPWEPPKTKLDEDLESSSESECESDEDSTCSSSSDSEVFDVIAEIKRKKAHPDRLHDELWYNDPGQMNDGPLCKCSAKARRTGIRHSIYPGEEAIKPCRPMTNNAGRLFHYRITVSPPTNFLTDRPTVIEYDDHEYIFEGFSMFAHAPLTNIPLCKVIRFNIDYTIHFIEEMMPENFCVKGLELFSLFLFRDILELYDWNLKGPLFEDSPPCCPRFHFMPRFVRFLPDGGKEVLSMHQILLYLLRCSKALVPEEEIANMLQWEE
In the case of B5, the binding entry in test [3] was “binds”.

Source of the values: paper PMC6853637.
